Source: patent US20240115603A1 (Zymeworks, published 2024)

Chains of the proteins cited; added tags and fusions are not shown. Lines headed by an entry give the natural chain unless they say otherwise; changes in a name come on top.
UniProt Q99062: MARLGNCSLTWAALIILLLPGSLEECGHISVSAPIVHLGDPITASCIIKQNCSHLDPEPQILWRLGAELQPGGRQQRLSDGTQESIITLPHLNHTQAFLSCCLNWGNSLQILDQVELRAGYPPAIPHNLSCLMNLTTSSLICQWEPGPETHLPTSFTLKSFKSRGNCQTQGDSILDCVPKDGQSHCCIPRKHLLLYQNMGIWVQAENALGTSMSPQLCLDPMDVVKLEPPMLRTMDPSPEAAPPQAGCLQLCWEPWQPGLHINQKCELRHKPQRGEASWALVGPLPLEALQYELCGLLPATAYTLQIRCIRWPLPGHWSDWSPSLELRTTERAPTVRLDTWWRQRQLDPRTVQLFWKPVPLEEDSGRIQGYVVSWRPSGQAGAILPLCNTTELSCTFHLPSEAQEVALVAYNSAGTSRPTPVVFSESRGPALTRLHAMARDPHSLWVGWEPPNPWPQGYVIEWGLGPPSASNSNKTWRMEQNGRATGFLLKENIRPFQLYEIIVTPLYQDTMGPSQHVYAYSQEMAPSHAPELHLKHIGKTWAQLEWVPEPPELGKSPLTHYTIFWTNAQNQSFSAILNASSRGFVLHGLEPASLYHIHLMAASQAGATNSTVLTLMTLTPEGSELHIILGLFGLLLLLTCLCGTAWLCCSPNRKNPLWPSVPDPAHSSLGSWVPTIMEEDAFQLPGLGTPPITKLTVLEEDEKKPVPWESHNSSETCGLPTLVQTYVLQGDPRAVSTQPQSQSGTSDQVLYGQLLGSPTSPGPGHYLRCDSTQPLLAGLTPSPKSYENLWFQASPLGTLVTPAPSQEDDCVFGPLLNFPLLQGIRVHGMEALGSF

Legend:
[1] = molecular target: T1, WT G-CSFR(Ig-CRH) with N-terminal His tag (human, UniProt Q99062 25-331); assay: co-expression in Tni insect cells, pulldown via Twin Strep tag on G-CSF, SDS-PAGE
T1 construct: also called WT receptor
T1 chain: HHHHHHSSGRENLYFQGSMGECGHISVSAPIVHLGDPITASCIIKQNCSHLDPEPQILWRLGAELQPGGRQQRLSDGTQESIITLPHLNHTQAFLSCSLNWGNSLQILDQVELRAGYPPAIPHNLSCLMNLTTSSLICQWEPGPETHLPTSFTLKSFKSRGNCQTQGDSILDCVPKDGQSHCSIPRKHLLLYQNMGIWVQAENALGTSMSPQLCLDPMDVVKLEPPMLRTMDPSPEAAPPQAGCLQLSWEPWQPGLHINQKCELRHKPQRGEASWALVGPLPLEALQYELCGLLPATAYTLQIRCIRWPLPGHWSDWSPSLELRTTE

[2] = molecular target: T2, WT G-CSFR(CRH) with N-terminal His tag (human, UniProt Q99062 120-331); assay: as above
T2 construct: also called G-CSFR(CRH)WT; WT receptor
T2 chain: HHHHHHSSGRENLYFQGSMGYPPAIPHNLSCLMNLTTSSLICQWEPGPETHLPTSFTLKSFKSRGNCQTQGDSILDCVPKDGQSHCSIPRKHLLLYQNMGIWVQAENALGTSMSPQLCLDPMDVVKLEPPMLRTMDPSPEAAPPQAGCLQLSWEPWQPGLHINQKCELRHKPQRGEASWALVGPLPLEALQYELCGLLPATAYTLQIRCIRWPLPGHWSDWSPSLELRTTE

| Binder | binding result [1] | binding result [2] |
| --- | --- | --- |
| G-CSFE combination design 401 with C-terminal Twin Strep tag (ligand, also called design 401 cytokine) TPLGPASSLPQSFLLKCLKQVRKIQGDGAALQEKLCATYKLCHPERLVLLGHSLGIPWAPLSSCPSQALQLAGCLSQLHSGLFLYQGLLQALEGISPELGPTLDTLQKDVARFATTIWQQMEELGMAPALQPTQGAMPAFASAFQRRAGGVLVASHLQSFLEVSYRVLRHLAQAAAENLYFQGSAWSHPQFEKGGGSGGGSGGSAWSHPQFEK | no binding | – |
| G-CSFE site II design 15 with C-terminal Twin Strep tag (ligand, also called design #15 G-CSFE) TPLGPASSLPQSFLLDCLEQVRKIQGDGAALQEKLCATYKLCHPEELVLLGHSLGIPWAPLSSCPSQALQLAGCLSQLHSGLFLYQGLLQALEGISPELGPTLDTLQLDVADFAEDIWEQMEELGMAPALQPTQGAMPAFASAFQRRAGGVLVASHLQSFLEVSYRVLRHLAQAAAENLYFQGSAWSHPQFEKGGGSGGGSGGSAWSHPQFEK | – | no binding |
| G-CSFE site II design 34 with C-terminal Twin Strep tag (ligand, also called design #34 G-CSFE) TPLGPASSLPQSFLLKCLEQVRKIQGDGAALQEKLCATYKLCHPEELVLLGHSLGIPWAPLSSCPSQALQLAGCLSQLHSGLFLYQGLLQALEGISPELGPTLDTLQKDVARFATTIWQQMRRLGMAPALQPTQGAMPAFASAFQRRAGGVLVASHLQSFLEVSYRVLRHLAQAAAENLYFQGSAWSHPQFEKGGGSGGGSGGSAWSHPQFEK | – | no binding |
| G-CSFE site II design 9 with C-terminal Twin Strep tag (ligand, also called design #9 G-CSFE) TPLGPASSLPQSFLLKCLEQVRKIQGDGAALQEKLCATYKLCHPEELVLLGHSLGIPWAPLSSCPSQALQLAGCLSQLHSGLFLYQGLLQALEGISPELGPTLRTLQKDVARFATTIWRQMKELGMAPALQPTQGAMPAFASAFQRRAGGVLVASHLQSFLEVSYRVLRHLAQAAAENLYFQGSAWSHPQFEKGGGSGGGSGGSAWSHPQFEK | – | no binding |
| G-CSFE site II design 8 with C-terminal Twin Strep tag (ligand, also called design #8 G-CSFE) TPLGPASSLPQRFLLKCFEQVRKIQGDGAALQEKLCATYKLCHPEELVLLGHSLGIPWAPLSSCPSQALQLAGCLSQLHSGLFLYQGLLQALEGISPELGPTLRTLQKDVARFATTIWQQMEELGMAPALQPTQGAMPAFASAFQRRAGGVLVASHLQSFLEVSYRVLRHLAQAAAENLYFQGSAWSHPQFEKGGGSGGGSGGSAWSHPQFEK | – | no binding |
| G-CSFE combination design 402 with C-terminal Twin Strep tag (ligand, also called design 402 cytokine) TPLGPASSLPQSFLLKCLKQVRKIQGDGAALQEKLCATYKLCHPERLVLLGHSLGIPWAPLSSCPSQALQLAGCLSQLHSGLFLYQGLLQALEGISPELGPTLDTLQLDVAKFAKTIWQQMEELGMAPALQPTQGAMPAFASAFQRRAGGVLVASHLQSFLEVSYRVLRHLAQAAAENLYFQGSAWSHPQFEKGGGSGGGSGGSAWSHPQFEK | no binding | – |
